Test results reported in article PMC8464784.
No constants are given. Whether binding was seen depends on the method and setting. Binding seen in cells or lysates may run through a third protein. A yes stands for co-enrichment or nearness to the bait. Other partners may have been found. Tags and fused reporters may be left off the sequences shown.

Target: FLAG-P6 (Cauliflower mosaic virus P6 protein) (Cauliflower mosaic virus (strain CM1841))
Experiment: affinity purification with mass spectrometry; anti-FLAG antibody purification from transgenic Arabidopsis 35S: FLAG-P6, control transgenic Arabidopsis 35S: FLAG-EGFP

B1: AtHD2C (histone deacetylase HD2C), endogenous (protein, UniProt Q9LZR5 1-294)
chain: MEFWGVEVKNGKPLHLDPGLDRLVHISQVALGESKNNVTEPIQLYVTVGSDKLLIGTLSHEKFPQLSTEIVLERNFALSHTWKNGSVFFSGYKVDASDPEPEDLIDDQLEAAGFKAAPKSAAKQVNFQLPNEDVKAKQDDDADGSEEDSSDDDDSENSGDEEEEKVTAESDSEEDDSSDDEEDDSSEEETPKKPEEPKKRSAEPNSSKNPASNKKAKFVTPQKTDSKKPHVHVATPHPSKQAGKNSGGGSTGETSKQQQTPKSAGAFGCKSCTRTFTSEMGLQSHTKAKHSAAA
B1 was tested, and the binding was “binds”.
